Experimental data as given in PMC8040806.
No constants are given. Whether binding was seen depends on the method and setting. Some results given as binding are weak or reduced against the parent protein; the word gives no strength.

Chains of the proteins cited; added tags and fusions are not shown.
UniProt P33892: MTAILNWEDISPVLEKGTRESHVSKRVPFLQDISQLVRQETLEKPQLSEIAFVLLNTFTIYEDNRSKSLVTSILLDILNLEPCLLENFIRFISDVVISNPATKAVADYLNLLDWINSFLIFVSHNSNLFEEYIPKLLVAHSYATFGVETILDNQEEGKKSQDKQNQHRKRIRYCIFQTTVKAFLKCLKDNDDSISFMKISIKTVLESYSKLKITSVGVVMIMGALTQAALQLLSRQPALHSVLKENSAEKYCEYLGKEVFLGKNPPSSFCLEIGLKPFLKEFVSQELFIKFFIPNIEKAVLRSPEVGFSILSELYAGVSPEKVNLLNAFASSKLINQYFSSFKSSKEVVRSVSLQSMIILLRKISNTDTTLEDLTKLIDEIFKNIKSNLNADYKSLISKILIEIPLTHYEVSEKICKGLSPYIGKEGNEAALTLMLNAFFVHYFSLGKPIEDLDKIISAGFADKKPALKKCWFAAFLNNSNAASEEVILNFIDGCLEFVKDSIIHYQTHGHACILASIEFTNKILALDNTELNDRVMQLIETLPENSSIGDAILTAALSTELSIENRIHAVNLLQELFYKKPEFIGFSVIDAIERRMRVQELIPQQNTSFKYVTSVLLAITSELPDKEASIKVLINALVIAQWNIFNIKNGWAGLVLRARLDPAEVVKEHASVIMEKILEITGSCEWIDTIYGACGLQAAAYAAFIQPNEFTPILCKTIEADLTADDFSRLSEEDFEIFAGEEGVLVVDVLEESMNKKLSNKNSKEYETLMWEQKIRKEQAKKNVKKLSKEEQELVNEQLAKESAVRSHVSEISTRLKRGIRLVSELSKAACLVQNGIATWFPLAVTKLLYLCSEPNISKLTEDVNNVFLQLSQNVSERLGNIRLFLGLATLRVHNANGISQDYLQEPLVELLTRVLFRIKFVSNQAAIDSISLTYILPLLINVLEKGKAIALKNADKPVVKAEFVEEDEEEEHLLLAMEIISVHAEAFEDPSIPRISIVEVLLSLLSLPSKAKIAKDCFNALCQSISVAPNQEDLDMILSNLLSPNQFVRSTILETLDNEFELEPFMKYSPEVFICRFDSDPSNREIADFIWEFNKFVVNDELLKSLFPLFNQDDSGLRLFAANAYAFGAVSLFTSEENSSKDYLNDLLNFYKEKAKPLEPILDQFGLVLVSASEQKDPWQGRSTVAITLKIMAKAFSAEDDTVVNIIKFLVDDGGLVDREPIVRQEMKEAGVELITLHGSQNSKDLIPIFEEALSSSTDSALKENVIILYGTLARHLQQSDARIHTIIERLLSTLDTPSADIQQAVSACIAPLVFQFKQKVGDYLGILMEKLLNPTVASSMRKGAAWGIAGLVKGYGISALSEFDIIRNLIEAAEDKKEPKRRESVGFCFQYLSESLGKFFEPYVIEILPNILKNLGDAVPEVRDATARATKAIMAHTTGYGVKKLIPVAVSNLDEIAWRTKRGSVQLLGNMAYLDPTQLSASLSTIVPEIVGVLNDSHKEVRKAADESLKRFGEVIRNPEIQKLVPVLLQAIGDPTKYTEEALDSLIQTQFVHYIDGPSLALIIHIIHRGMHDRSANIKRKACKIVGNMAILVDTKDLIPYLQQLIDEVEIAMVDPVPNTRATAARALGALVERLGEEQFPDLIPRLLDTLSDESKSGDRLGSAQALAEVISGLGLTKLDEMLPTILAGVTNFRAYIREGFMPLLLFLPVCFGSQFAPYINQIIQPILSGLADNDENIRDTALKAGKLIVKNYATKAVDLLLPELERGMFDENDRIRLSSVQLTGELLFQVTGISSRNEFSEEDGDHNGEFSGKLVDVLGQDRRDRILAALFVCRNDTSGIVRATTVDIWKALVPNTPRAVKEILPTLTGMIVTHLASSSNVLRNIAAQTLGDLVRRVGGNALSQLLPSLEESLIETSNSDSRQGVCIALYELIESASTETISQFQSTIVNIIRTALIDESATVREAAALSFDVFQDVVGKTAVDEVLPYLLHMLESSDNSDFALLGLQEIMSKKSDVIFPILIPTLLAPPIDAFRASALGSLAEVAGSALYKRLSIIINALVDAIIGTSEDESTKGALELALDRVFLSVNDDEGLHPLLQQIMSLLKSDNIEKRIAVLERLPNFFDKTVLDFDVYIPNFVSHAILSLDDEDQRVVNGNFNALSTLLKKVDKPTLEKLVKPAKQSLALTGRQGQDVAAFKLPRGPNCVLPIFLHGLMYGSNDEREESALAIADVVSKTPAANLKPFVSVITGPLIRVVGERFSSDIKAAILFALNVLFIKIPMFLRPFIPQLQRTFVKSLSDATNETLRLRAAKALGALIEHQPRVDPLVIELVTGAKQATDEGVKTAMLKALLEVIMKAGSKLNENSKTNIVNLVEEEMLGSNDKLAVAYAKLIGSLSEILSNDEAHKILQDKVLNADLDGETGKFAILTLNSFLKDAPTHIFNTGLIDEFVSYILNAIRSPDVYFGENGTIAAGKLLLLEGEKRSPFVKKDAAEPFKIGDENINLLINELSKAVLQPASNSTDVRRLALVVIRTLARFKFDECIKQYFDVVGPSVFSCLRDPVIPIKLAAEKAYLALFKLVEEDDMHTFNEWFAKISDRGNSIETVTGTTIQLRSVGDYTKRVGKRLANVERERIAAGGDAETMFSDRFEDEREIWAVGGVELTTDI

Assays:
[1] = target: T1, ribosome binding GTPase 2 (Rbg2) (S. cerevisiae (endogenous in the GCN20-TAP strain)) (UniProt P53295); experiment: cryo-EM structure; native Gcn20-TAP eluate (cells without 3-AT), cross-linked with 0.02% glutaraldehyde 20 min on ice, 0.01% DDM; Titan Krios 300 kV, Falcon II; focused refinement of the leading and the colliding ribosome of the Gcn1-disome
T1 sequence: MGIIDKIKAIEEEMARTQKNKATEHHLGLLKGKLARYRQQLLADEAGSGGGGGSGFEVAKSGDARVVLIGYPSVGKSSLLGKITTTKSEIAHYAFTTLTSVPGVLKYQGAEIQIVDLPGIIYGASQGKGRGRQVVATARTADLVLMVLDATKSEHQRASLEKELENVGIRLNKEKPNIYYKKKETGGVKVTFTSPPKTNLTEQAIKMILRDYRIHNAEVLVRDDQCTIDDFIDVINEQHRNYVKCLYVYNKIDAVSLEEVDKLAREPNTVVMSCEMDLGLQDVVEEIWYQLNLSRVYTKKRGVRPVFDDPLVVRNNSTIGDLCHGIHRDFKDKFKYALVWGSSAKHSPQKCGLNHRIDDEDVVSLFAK

[2] = target: Gcn1 (S. cerevisiae (endogenous in the GCN20-TAP strain)) (UniProt P33892); experiment: as above

binding [1]: binds
binding [2]: binds
B1: Gir2 (Genetically interacts with ribosomal genes 2) (protein, UniProt Q03768 1-265)
chain: MDYKEEQKQELEVLESIYPDELRIINDEYPKIKFEVAIKLELDTGDSTSVLTKEHTIIAEFKLPENYPDEPCLISLEAQEVALNDNEEDNEEDEDEVEYDDHGNKVLKKFENLPDLISFKGYLPELTVQLESQIETDMLLGMQMCFALISSIKERCEQWYSEQLNKLEKQYELEAQEREKKEQAKFHGTKVTRESYLEWRSKFRQELKLDERDQVRRMKAHHGKLTGKQMFEQGVVGTGDEYMEEDDASVDDVAKGLAKTEIANQ
